Taken from: PubChem BioAssay AID1259254 (NCATS, 2017)

Screen: 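Genome-wide screen for genes that prevent DNA re-replication in cancer cells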 (primary screen)
Cell system: human HCT116 colorectal cancer cells
Reagent: single siRNA against human genes
Time to read-out: 3 days
Read-out: 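Imaged Hoechst DNA stain sorts each cell into a cycle phase by DNA amount; per plate, G2 fraction set to 0% for non-targeting and 100% for GMNN siRNA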
Direction: G2 robust z-score and G2 cells, % of GMNN control: higher = more G2 cells, more excess DNA replication; raw share of cells in G2: higher = larger share of cells with G2 DNA content
Hit rule: 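An siRNA counts as active if its G2 robust z-score lies at least 5 MADs above the screen median; here such calls match roughly 38% of GMNN control or more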
The whole screen tested about 59,000 reagents; shown is a part drawn at random. Of all reagents, about 1,550 (2.6%) got an active call. 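G2 share is only a proxy for re-replication; each gene was hit by three separate siRNAs, and active genes were retested.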 Raw values vary from plate to plate and are shown uncorrected. Unmarked entries are inactive. Reagents against one gene are numbered here. The record does not give: the amount of reagent.

Target gene,reagent,G2 robust z-score,"G2 cells, % of GMNN control",raw share of cells in G2 (%)
GIPC2 (GeneID 54810),1,0.671,7.69,9.44
GIPC2 (GeneID 54810),2,0.0799,3.53,5.55
GIPC2 (GeneID 54810),3,-1.07,-4.55,2.06
ADAM15 (GeneID 8751),1,-0.751,-2.32,4.75
ADAM15 (GeneID 8751),2,0.672,7.7,7.63
ADAM15 (GeneID 8751),3,0.711,7.97,6.88
ARHGAP25 (GeneID 9938),1,-0.0685,2.49,6.45
ARHGAP25 (GeneID 9938),2,-0.823,-2.82,2.77
ARHGAP25 (GeneID 9938),3,-0.0543,2.59,4.35
ZNF667 (GeneID 63934),1,3.33,26.4,12.1
ZNF667 (GeneID 63934),2,-0.287,0.947,6.34
ZNF667 (GeneID 63934),3,0.674,7.71,6.05
DDAH2 (GeneID 23564),1,-0.876,-3.2,5.09
DDAH2 (GeneID 23564),2,0.739,8.17,6.66
DDAH2 (GeneID 23564),3,-0.195,1.6,4.69
TTC38 (GeneID 55020),1,-1.32,-6.32,2.1
TTC38 (GeneID 55020),2,-0.934,-3.6,2.65
TTC38 (GeneID 55020),3,0.843,8.9,5.98
SIPA1L3 (GeneID 23094),1,-0.87,-3.15,3.1
SIPA1L3 (GeneID 23094),2,1.25,11.7,7.88
SIPA1L3 (GeneID 23094),3,1.97,16.8,13.1
HMGN1P21 (GeneID 728325),1,1.08,10.6,7.55
HMGN1P21 (GeneID 728325),2,0.338,5.35,4.76
HMGN1P21 (GeneID 728325),3,-0.805,-2.69,2.58
FIZ1 (GeneID 84922),1,0.279,4.93,4.53
FIZ1 (GeneID 84922),2,1.39,12.8,11.7
FIZ1 (GeneID 84922),3,-0.64,-1.54,3.15
SLC39A4 (GeneID 55630),1,0.442,6.08,6.62
SLC39A4 (GeneID 55630),2,-0.707,-2.01,3.5
SLC39A4 (GeneID 55630),3,-0.0481,2.63,7.58
FZD7 (GeneID 8324),1,1.89,16.3,11.7
FZD7 (GeneID 8324),2,1.29,12,8.73
FZD7 (GeneID 8324),3,-0.481,-0.42,3.14
DEFB114 (GeneID 245928),1,0.0752,3.5,4.85
DEFB114 (GeneID 245928),2,1.15,11,6.91
DEFB114 (GeneID 245928),3,-0.506,-0.593,3
SPTSSB (GeneID 165679),1,0.703,7.91,5.26
SPTSSB (GeneID 165679),2,-0.722,-2.11,2.85
SPTSSB (GeneID 165679),3,2.05,17.4,8.78
TOB1 (GeneID 10140),1,-0.366,0.395,5.51
TOB1 (GeneID 10140),2,0.17,4.16,5.68
TOB1 (GeneID 10140),3,0.619,7.33,6.07
FMO2 (GeneID 2327),1,-0.473,-0.363,5.11
FMO2 (GeneID 2327),2,4.36,33.7,18.1
FMO2 (GeneID 2327),3,-0.543,-0.85,3.35
COLEC11 (GeneID 78989),1,-0.00797,2.91,3.47
COLEC11 (GeneID 78989),2,-0.357,0.453,4.78
COLEC11 (GeneID 78989),3,-1.14,-5.09,2.33
